The target of the experiment is GST-Bag-1L fusion protein with K279 mutated alone (human) (UniProt Q99933). Put plainly: pull-down; GST-Bag-1L fusion proteins (wild type and BAG domain point mutants) with lysates from LNCaP cells; only the target purified.

Protein sequences, listed by entry. Tags and fused reporters are not part of them. Lines headed by an entry give the natural chain unless they say otherwise; changes in a name come on top.
UniProt Q99933: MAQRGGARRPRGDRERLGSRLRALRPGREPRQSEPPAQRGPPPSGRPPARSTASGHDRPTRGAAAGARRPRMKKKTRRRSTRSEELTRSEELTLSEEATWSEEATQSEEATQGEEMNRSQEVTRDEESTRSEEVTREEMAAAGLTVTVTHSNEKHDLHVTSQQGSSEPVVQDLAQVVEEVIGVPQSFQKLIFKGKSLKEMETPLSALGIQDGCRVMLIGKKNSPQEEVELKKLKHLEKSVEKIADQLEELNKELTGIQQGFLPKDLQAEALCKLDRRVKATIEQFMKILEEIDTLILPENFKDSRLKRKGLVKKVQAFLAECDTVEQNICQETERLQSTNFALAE
UniProt P10275: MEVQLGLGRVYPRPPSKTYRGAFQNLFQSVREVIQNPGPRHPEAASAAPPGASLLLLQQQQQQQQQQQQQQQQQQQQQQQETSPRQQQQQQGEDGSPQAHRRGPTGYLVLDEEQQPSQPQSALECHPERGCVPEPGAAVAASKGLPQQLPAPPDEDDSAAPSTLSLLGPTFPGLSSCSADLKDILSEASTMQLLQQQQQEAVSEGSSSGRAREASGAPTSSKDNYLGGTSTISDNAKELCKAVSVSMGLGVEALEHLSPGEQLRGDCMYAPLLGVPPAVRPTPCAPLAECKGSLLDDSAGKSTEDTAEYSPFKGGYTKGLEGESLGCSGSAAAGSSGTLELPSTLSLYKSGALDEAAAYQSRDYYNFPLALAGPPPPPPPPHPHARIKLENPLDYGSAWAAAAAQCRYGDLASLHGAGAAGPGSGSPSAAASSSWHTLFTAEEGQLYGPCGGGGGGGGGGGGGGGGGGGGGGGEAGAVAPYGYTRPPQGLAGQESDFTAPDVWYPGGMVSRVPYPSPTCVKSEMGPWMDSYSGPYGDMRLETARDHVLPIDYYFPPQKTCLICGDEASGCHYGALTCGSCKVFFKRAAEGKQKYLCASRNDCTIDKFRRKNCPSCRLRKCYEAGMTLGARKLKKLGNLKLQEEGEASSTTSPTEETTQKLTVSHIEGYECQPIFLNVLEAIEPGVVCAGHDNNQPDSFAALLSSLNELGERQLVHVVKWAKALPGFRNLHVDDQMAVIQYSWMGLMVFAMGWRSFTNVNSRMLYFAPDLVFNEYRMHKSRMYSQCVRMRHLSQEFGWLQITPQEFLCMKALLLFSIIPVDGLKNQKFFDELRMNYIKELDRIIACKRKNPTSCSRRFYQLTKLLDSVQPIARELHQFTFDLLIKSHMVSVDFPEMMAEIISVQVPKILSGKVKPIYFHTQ

Results are given in words; binding and its absence hold for the method and conditions named. In cells and extracts the contact can be indirect. Binding can be weak; no strength is given.

Take “androgen receptor, endogenous in LNCaP cells (from UniProt P10275 1-920)”: the binding result is recorded as “binds”.
